# Results as given in article PMC12040169 (PLOS Biology, 2025).
# The other results are listed elsewhere or left out.
# System: T1, CTL2-GFP (C. trachomatis L2/434/Bu, GFP-expressing)
# T1 construct: L2/434/Bu, GFP-expressing
# Set-up: species or system HeLa; Intracellular C. trachomatis growth in HeLa cells, bulk GFP fluorescence relative to DMSO
# Details: bulk GFP, single well; 28.5 h, 10 µM; inhibitor
row,SMILES,% of control remaining [%]
1,O=C(CC1(O)C(=O)N(Cc2ccc3c(c2)OCO3)c2ccccc21)c1ccccn1 (stereo not drawn) [CBK269725],131.953
2,Cc1nc2sc3c(c2c2nc(-c4ccncc4)nn12)CCCC3 [CBK288541],133.361
3,Fc1ccc(OCCCN2CCC3(CC2)OCCc2c3[nH]c3ccccc23)cc1 [CBK107736],127.598
4,NC(=S)Nn1c(CCC(=O)O)ccc1-c1cccs1 [CBK265952],123.93
5,O=C(CNC(=O)c1cccc(Cl)c1)N/N=C/C=C/c1ccccc1 [CBK261947],100.657
6,c1csc(-c2nc3[nH]c4ccccc4n3n2)c1 [CBK264118],106.721
7,Cn1nc(-c2ccc(S(=O)(=O)NCCN3CCNC3=O)s2)cc1C(F)(F)F [CBK062610],116.544
8,O=C(Nc1ccccc1C(=O)c1ccccc1)c1ccccn1 [CBK288150],114.049
9,O=C(NC(c1ccc2c(c1)CCO2)C1CC(O)C1)c1cccc(=O)[nH]1 (stereo not drawn) [CBK307463],97.8097
10,CC1CCCN(c2nc3cc(C(=O)O)sc3[nH]2)C1 (stereo not drawn) [CBK287159],118.065
11,Cn1nccc1C(=O)N1CCCC(c2cc3ncccc3[nH]2)C1 (stereo not drawn) [CBK283413],132.816
12,Cc1cc(-c2nc3ncccc3o2)ccc1NC(=O)c1ccc2c(c1)OCCO2 [CBK270104],116.569
13,O=[N+]([O-])c1ccc(NCCCNS(=O)(=O)c2ccc(Cl)cc2)c(Cl)c1 [CBK262543],104.667
14,CC(CN1CCCCC1)OC(=O)C(c1ccccc1)c1ccccc1 (stereo not drawn) [CBK265237C],80.4856
15,CN(C)c1cccc(Nc2cc(-c3ccc(CCC(=O)O)cc3)ncn2)c1 [CBK091010],167.283
16,Cc1c(C(N)=O)sc2ncn(CC(=O)NCCc3ccccc3)c(=O)c12 [CBK268514],152.789
17,CC1CCc2nc(NC(=O)c3ccccc3)sc2C1 (stereo not drawn) [CBK287298],113.459
18,COc1ccc(CCNC(=S)N2CCN(S(C)(=O)=O)CC2)cc1OC [CBK266917],108.641
19,CCC(=O)N1CCC(c2cc(-c3cccc(F)c3)n(C)n2)CC1 [CBK282096],106.924
20,CSc1nc(NN2C(=O)c3ccccc3C2=O)c2c3c(sc2n1)COC(C)(C)C3 [CBK268758],115.797
21,Cc1nnc(CN(C)C2CCN(CCc3cccs3)C2)n1C (stereo not drawn) [CBK305126],149.016
22,O=C(NCc1cccnc1)N1CCCCC1CO (stereo not drawn) [CBK156169],88.8486
23,Cc1nnc2nc(-c3ccc(Cl)cc3Cl)[nH]n12 [CBK027731],90.8581
24,O=C(c1c[nH]c(-c2ncn[nH]2)c1)c1ccc(Cl)cc1Cl [CBK008334],112.37
25,Cc1ccccc1-n1ccn(C(=O)CCCOc2ccc(Cl)cc2)c1=O [CBK106573],114.441
26,Cc1ccnc(NCn2nnc3ccccc32)c1 [CBK261116],108.518

row,SMILES,% of control remaining [%]
1,COc1ccc(Cn2nc(NC(=O)c3cnc4ccccc4n3)c3ccccc32)cc1 [CBK048343],113.398
2,CC1(C(=O)O)COC(c2ccc([N+](=O)[O-])cc2)OC1 (stereo not drawn) [CBK286737],118.681
3,CC(Nc1n[nH]c(=O)[nH]c1=O)C(=O)N/N=C/c1ccccc1O (stereo not drawn) [CBK263526],100
4,O=C(c1ccc(F)cc1)C1CCN(Cc2cccnc2)CC1 [CBK149118],108.045
5,COc1ccc(Cl)c(Cn2c(NCc3ccccn3)nc3c2c(=O)n(C)c(=O)n3C)c1 [CBK268965],119.935
6,Cc1ncccc1C(=O)N1CCC2(CCc3ccccc3C(=O)N2)C1 (stereo not drawn) [CBK283338],93.6021
7,CN(C)C(=O)c1ccc(-c2cnc3[nH]c(=O)n(CCCN4CCOCC4)c3n2)cc1 [CBK064828],87.5718
8,COc1cc(-c2cncc(NCc3ccco3)n2)cc(OC)c1OC [CBK065259],117.28
9,CCCN1CCC(NCC(C)(C)CN(C)C)CC1 [CBK261934],110.509
10,O=C(NC1CCCCC1)NC1CCN(Cc2nnnn2Cc2ccco2)CC1 [CBK085007],98.8602
11,Cc1cnccc1N1CCN(C(=O)CCCOc2ccccc2)CC1 [CBK304677],129.316
12,Cc1c(C(=O)O)sc2nc(SCC(=O)Nc3ccc(OCc4ccccc4)cc3)[nH]c(=O)c12 [CBK296992],169.206
13,C=CCN1C(=O)CC2(C1=O)C(=O)N(CC)c1ccc(F)cc12 (stereo not drawn) [CBK075316],95.2301
14,Cc1cc2n(n1)[C@@H](C(F)F)C[C@@H](C1CCCN(C(=O)C3CC3)C1)N2 (stereo partly drawn) [CBK284723],92.2049
15,CCCC(=O)N1CCCC1c1cc2n(n1)[C@@H](C(F)(F)F)C[C@@H](C)N2 (stereo partly drawn) [CBK283003],125.646
16,COc1ccc(OC)c([C@@H]2CN(Cc3ccccc3)C[C@H]2NC(=O)c2ccco2)c1 [CBK286479],125.058
17,NC(=O)C1CCN(c2ccc(-c3noc([C@@H]4CCCN4Cc4cccnc4)n3)cn2)CC1 [CBK288882],129.813
18,O=C1CC(C(=O)Nc2ccc(Cl)cc2)c2c(nc(SCc3ccccc3F)[nH]c2=O)N1 (stereo not drawn) [CBK294437],145.53
19,Cc1cc(C(=O)N2Cc3ccccc3C2)n[nH]1 [CBK200328],165.337
20,Cc1nnc([C@H]2CCN(Cc3ccc(F)cc3)C2)o1 [CBK289391],131.128
21,O=C(COc1ccc(Cl)cc1)NNC(=O)c1cccnc1 [CBK261044],111.649
22,COC(=O)[C@@H]1Cc2ncn(Cc3ccc(Cl)cc3)c2CN1C(=O)c1ccc(C#N)cc1 [CBK288984],112.836
23,Nc1nc(N)c2nc(C3OCCO3)cnc2n1 [CBK027115],86.2075
24,Cn1nc2c(cc1=O)CN(C(=O)c1cnc(C(C)(C)C)nc1)CC2 [CBK304293],121.915
25,O=C(Nc1ccc2c(c1)C(=O)NC2=O)c1ccccc1 [CBK270384],136.655
26,O=C(Cn1cnnn1)NCc1ccccc1 [CBK200255],124.309

# Two entries from above in another layout:
row | SMILES | % of control remaining [%]
18 | O=C1CC(C(=O)Nc2ccc(Cl)cc2)c2c(nc(SCc3ccccc3F)[nH]c2=O)N1 (stereo not drawn) [CBK294437] | 145.53
19 | Cc1cc(C(=O)N2Cc3ccccc3C2)n[nH]1 [CBK200328] | 165.337

# Single values from the list.
# `Nc1nc(N)c2nc(C3OCCO3)cnc2n1` [CBK027115] – % of control remaining [%]: 86.2075
# `O=C(NC1CCCCC1)NC1CCN(Cc2nnnn2Cc2ccco2)CC1` [CBK085007] – % of control remaining [%]: 98.8602

# (list continues)

row,SMILES,% of control remaining [%]
1,CC(=O)c1ccc2c(c1)[C@@H]1C=CC[C@@H]1[C@H](C(=O)O)N2 [CBK287093],132.136
2,CCCn1cnc2cc(NC(=O)Cn3cccc(C(=O)Nc4ccc(F)cc4)c3=O)ccc21 [CBK286060],122.098
3,O=C(O)c1cc(NC/C=C/c2ccccc2)ccc1N1CCOCC1 [CBK269806],79.2912
4,CS(=O)(=O)c1ncc(Cl)c(C(=O)N(Cc2ccccc2)Cc2ccco2)n1 [CBK269603],38.2117
5,COc1ccc(OCC2CCN(C(=O)[C@@H]3C[C@@H]4C=C[C@H]3C4)CC2)cc1 [CBK282218],114.29
6,O=C(NCCN1CCOCC1)c1cccc(S(=O)(=O)N2CCCC2)c1 [CBK267316],135.79
7,CN(C)c1nc(N(C)C)n(Cc2ccc(F)cc2)n1 [CBK018839],117.082
8,CC(=O)NCCc1ccc(S(=O)(=O)N2CCN(Cc3ccccc3)CC2)cc1 [CBK268458],135.678
9,CC(C)(CO)CNc1nc(-c2ccsc2)cnc1N [CBK063499],109.234
10,CC(C)(C)NC(=O)Cn1cncc1-c1cnn(C2CCCCC2)c1 [CBK281701],131.84
11,O=C(CSc1nnc(CCc2ccccc2)n1-c1ccc(Cl)cc1)c1ccccc1 [CBK266277],128.768
12,Cc1ccc(C(=O)Oc2cccc(NC(=O)c3ccco3)c2)cc1S(=O)(=O)N1CCOCC1 [CBK263211],112.58
13,CCc1ccc(CNC(=O)Cn2nnnc2-c2ccc(CN3CCC(C)CC3)cn2)cc1 [CBK153930C],107.639
14,COc1ccc(C(=O)N2CCC3(CCN(C(=O)c4cccc(C#N)c4)C3)C2)cc1OC (stereo not drawn) [CBK131773],107.729
15,COC(=O)c1ccc(NC(=O)COn2nnc3ccc([N+](=O)[O-])cc32)cc1 [CBK267106],169.263
16,COc1ccc(N(C(C)C(=O)N/N=C(\C)c2ccccc2O)S(C)(=O)=O)cc1 (stereo not drawn) [CBK262402],99.1092
17,COc1ccc(CN2C(=O)COC[C@@H]2[C@H](O)c2ccc(NC(=O)c3ccc(OC)cc3)cc2)cc1 [CBK289675],146.765
18,CCCC/C=C/c1cncc(Nc2ccccc2)n1 [CBK037942],110.89
19,Cc1ccc(S(=O)(=O)Nc2ccc3c(ccn3CCOC3CCN(C(=O)OC(C)(C)C)CC3)c2)cc1Cl [CBK172991],108.169
20,CCC(SC1=NCCS1)C(=O)Nc1ccc(S(N)(=O)=O)cc1 (stereo not drawn) [CBK263027],100
21,C=CCC1(CC=C)CCN1C(=O)c1cccc(N2CCCC2=O)c1 [CBK282709],138.194
22,CCc1ccc(-c2cc3c(=O)[nH]nc(S)n3n2)cc1 [CBK288485],82.2069
23,O=C(CSc1nnc(-c2ccncc2)n1-c1ccccc1)Nc1ccc([N+](=O)[O-])cc1 [CBK266620],149.604
24,O=C1N/C(=N/N=C/c2ccc(O)cc2)SC1Cc1ccccc1[N+](=O)[O-] (stereo not drawn) [CBK261684],111.564
25,O=C(c1cccc(C(F)(F)F)c1)N1CCCC2(CCN(Cc3ccccc3)C2)C1 (stereo not drawn) [CBK137039],132.001
26,COc1nc(NCCN2CCOCC2)nc(Nc2ccc(Cl)cc2)n1 [CBK262541],97.4241
